Experimental data: PubChem BioAssay AID743121 (NCATS, 2013)

- Test: 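Genes whose silencing strengthens cell killing by camptothecin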 (primary screen)
- Cells: MDA-MB-231 cells, a human breast cancer line
- Reagent: single siRNA against human genes, 20 nM siRNA (0.8 pmol per well)
- Duration: 120 h (drug added 48 h after transfection, read 72 h later)
- Challenge: camptothecin 20 nM (about EC30) for 72 h; vehicle 0.1% DMSO in parallel plates
- Measurement: 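CellTiter-Glo ATP signal, scaled to control siRNA as percent viability; sensitisation given as log2 of untreated divided by camptothecin-treated viability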
- Direction: log2 vehicle/camptothecin viability: higher = stronger sensitisation to camptothecin; viability with camptothecin: higher = more viable cells
- Active means: 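Active genes have an RSA gene-level p-value below 0.001, computed from the ratios of their separate siRNAs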
The deposit covers about 26,000 reagents; below is a part drawn at random. Of all reagents, 167 (0.63%) are marked active. 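Calls are per gene from RSA p-values that are not deposited; an individual active-marked siRNA can sensitise only weakly.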 A number with no mark means an inactive call. The numbers tell different reagents against one gene apart. Not all columns of the deposit are shown. Reagent sequences are not shown.

| Gene | reagent | log2 vehicle/camptothecin viability | viability with camptothecin (% of control) |
| --- | --- | --- | --- |
| MAFK (MAF bZIP transcription factor K) | 1 | 0.00424 | 103 |
| MAFK (MAF bZIP transcription factor K) | 2 | -0.67 | 107 |
| MAFK (MAF bZIP transcription factor K) | 3 | -0.102 | 86.2 |
| MAFK (MAF bZIP transcription factor K) | 4 | 0.517 | 48.6 |
| SPRY1 (sprouty RTK signaling antagonist 1) | 1 | -0.0917 | 81 |
| SPRY1 (sprouty RTK signaling antagonist 1) | 2 | -0.61 | 56.1 |
| SPRY1 (sprouty RTK signaling antagonist 1) | 3 | -0.436 | 76.3 |
| RAMP3 (receptor activity modifying protein 3) | 1 | -0.382 | 63.5 |
| RAMP3 (receptor activity modifying protein 3) | 2 | -0.236 | 77.5 |
| RAMP3 (receptor activity modifying protein 3) | 3 | -0.104 | 77.2 |
| RAMP3 (receptor activity modifying protein 3) | 4 | -0.0612 | 79.2 |
| GRIA3 (glutamate ionotropic receptor AMPA type subunit 3) | 1 | -0.251 | 74.5 |
| GRIA3 (glutamate ionotropic receptor AMPA type subunit 3) | 2 | 0.0987 | 109 |
| GRIA3 (glutamate ionotropic receptor AMPA type subunit 3) | 3 | 0.0475 | 62.6 |
| GRIA3 (glutamate ionotropic receptor AMPA type subunit 3) | 4 | 0.321 | 39.6 |
| SGK2 (serum/glucocorticoid regulated kinase 2) | 1 | -0.187 | 90.5 |
| SGK2 (serum/glucocorticoid regulated kinase 2) | 2 | -0.87 | 32.5 |
| SGK2 (serum/glucocorticoid regulated kinase 2) | 3 | 0.0475 | 51.2 |
| SGK2 (serum/glucocorticoid regulated kinase 2) | 4 | 0.0547 | 61.5 |
| RNF157 (ring finger protein 157) | 1 | 0.478 | 73.5 |
| RNF157 (ring finger protein 157) | 2 | -0.0813 | 88.3 |
| RNF157 (ring finger protein 157) | 3 | 0.0409 | 93.9 |
| RNF157 (ring finger protein 157) | 4 | -0.222 | 57.3 |
| DIAPH2 (diaphanous related formin 2) | 1 | -0.168 | 91.5 |
| DIAPH2 (diaphanous related formin 2) | 2 | -0.0497 | 77.4 |
| DIAPH2 (diaphanous related formin 2) | 3 | -0.31 | 121 |
| DIAPH2 (diaphanous related formin 2) | 4 | -0.224 | 122 |
| PI4K2A (phosphatidylinositol 4-kinase type 2 alpha) | 1 | -0.241 | 81.6 |
| PI4K2A (phosphatidylinositol 4-kinase type 2 alpha) | 2 | -0.0255 | 96 |
| PI4K2A (phosphatidylinositol 4-kinase type 2 alpha) | 3 | -0.383 | 73.8 |
| PI4K2A (phosphatidylinositol 4-kinase type 2 alpha) | 4 | 0.171 | 58.6 |
